Experimental data published in patent US12629419B2, “Prevention or mitigation of T-cell engaging agent-related adverse effects” (Hoffmann-La Roche Inc., priority 2020, dated 2026).
“Also recorded” adds a separate entry of the source. For at least one compound, name, drawing or mass did not settle the structure.

Legend:
CD19+ B cells = test: CD20-TCB-induced B cell depletion in non-tumor bearing humanized NSG mice; type: in vivo; conditions: up to 48 hours; dasatinib 10 or 50 mg/kg p.o.
Procedure: FIG. 95. In vivo experiment timelines and dosing schedule.
FIG. 96. […] The proportion of CD19+ B cells among human CD45+(huCD45) cells was measured by flow cytometry in the blood collected 48 hrs and 72 hrs post-treatment with CD20-TCB. Mean of n=4 mice or n=3 mice (everolimus group)+/−SEM. The statistical comparison to the vehicle group is summarized table (C) where the p values were calculated by Kruskal-Wallis test.
Different doses of mTOR, JAK and Src kinase inhibitors were tested to determine the optimal dose that reduces CD20-TCB-induced cytokine release while minimally interfering with B cell depletion. […] The doses of 30 and 60 mg/kg were tested for ruxolitinib and the doses of 10 and 50 mg/kg were tested for dasatinib. To reproduce the clinical route of administration, the different kinase inhibitors were given orally (p.o.) once or twice per day as depicted in FIG. 95. Mice were bled 4 hours and 24 hours after the treatment with CD20-TCB (FIG. 95) to collect serum for cytokine level measurements by Luminex. Additionally, blood was collected 48 hours and 72 hours (termination) post treatment with CD20-TCB to measure the percentage of CD19+ B cells among human CD45+ cells by flow cytometry (FIG. 95).

NALM-6 tumors cells = test: CD19-TCB killing assay with NALM-6 cells, inhibitors added after 24 hrs of activation: killing; type: cell-based; conditions: 100 nM added at 24 hrs; measured at 48 hrs
Procedure: (§1) FIG. 78. In vitro killing assay set-up. PBMCs were co-cultured with CTV labelled NALM-6 cells (E:T=10:1) in the presence of escalating concentrations of CD19-TCB for 24 hrs. At 24 hrs, the culture medium was supplemented with 100 nM dasatinib, 100 nM sirolimus or 100 nM ruxolitinib.
(§2) To assess whether the mTOR inhibitor sirolimus, the JAK1/2 inhibitor ruxolitinib and the Src inhibitor dasatinib can prevent further release of cytokines induced by the treatment of CD19-TCB, they were added in an in vitro killing assay after 24 hrs of activation (FIG. 78). In this assay CTV labelled NALM-6 tumors cells were co-cultured with PBMCs in the presence of escalating doses of CD19-TCB for 24 hrs. At 24 hrs, 100 nM ruxolitinib, 100 nM sirolimus or 100 nM dasatinib were added in the system. To verify if T cells were activated before the addition of the different kinase inhibitors, tumor cell killing and cytokine release were measured at 24 hrs (FIGS. 79 and 80). Lastly, cytokine release and tumor cell killing were measured at 48 hrs to assess the effect of the addition of 100 nM ruxolitinib, 100 nM sirolimus or 100 nM dasatinib on CD19-TCB-induced cytokine release as compared to the effect on killing.

CD4+ and CD8+ T cells [1] = test: T cell activation (CD25, CD69) in CD19-TCB SUDLH-8 assay; type: cell-based; conditions: 24 hrs, 100 nM kinase inhibitors or dexamethasone, 5 μg/mL antibodies
CD4+ and CD8+ T cells [2] = test: T cell activation (CD25, CD69 by flow cytometry) in CEA-TCB killing assay; type: cell-based; conditions: 66 h; 10 nM CEA-TCB; fixed compound concentrations
[3] = tested on: CEA-TCB-induced cytokine release; test: CEA-TCB-induced cytokine release (Luminex, supernatants); conditions: 66 h; 10 nM CEA-TCB; fixed compound concentrations
[4] = tested on: CD19-TCB-induced cytokine release; test: CD19-TCB NALM-6 assay, inhibitors added after 24 hrs: cytokine release; type: cell-based; conditions: 100 nM added at 24 hrs; between 24 hrs and 48 hrs
Procedure: as §1, §2

[5] = tested on: CD19-TCB-mediated cytokine release; test: cytokine release upon first CD19-TCB infusion in lymphoma PDX bearing mice (serum); type: in vivo; conditions: for IL-2, IFN-γ, TNF-α and IL-6 release upon the first infusion: serum 6 hrs post first infusion with CD19-TCB
Procedure: (§3) FIG. 89. In vivo experiment timelines and dosing schedule. Humanized NSG mice were engrafted with a lymphoma PDX (5 million cells, s.c.). […] The kinase inhibitors were given twice on the day of the first CD19-TCB administration (D16, once 1 hour before CD19-TCB, and once afterwards), and then once (sirolimus) or twice (dasatinib, ruxolitinib) on the two following days (D17 and D18), as well as once 1 hour before each subsequent CD19-TCB administration.
FIG. 94. […] Cytokine levels were measured by Luminex in serum collected 6 hrs post first infusion with CD19-TCB. Mean of n=6-8 mice+SD with *p≤0.05, **p<0.01, ***p<0.001 by 1 way ANOVA (Kruskal Wallis test).
(§4) First, we verified if the PDX cells were killed upon treatment with CD19-TCB in vitro, using a killing assay. The lymphoma PDX cells were co-cultured together with PBMCs (E:T=10:1) in the presence of CD19-TCB. […] Moreover, they were also administered one hour before each subsequent treatment to prevent residual cytokine secretion (FIG. 89).

SUDLH-8 tumor cells = test: killing assay with PBMCs, CTV labelled SUDLH-8 tumor cells and CD19-TCB; type: cell-based; conditions: 24 hrs; 100 nM kinase inhibitors or dexamethasone, 5 μg/mL antibodies
Procedure: FIG. 64. In vitro killing assay set-up. PBMCs were co-cultured with CellTrace™ Violet (CTV) labelled SUDLH-8 tumor cells (E:T=10:1) in the presence of escalating concentrations of CD19-TCB in media supplemented with the different kinase inhibitors (100 nM) for 24 hrs.
FIG. 69. In vitro killing assay set-up. PBMCs were co-cultured with CTV labelled SUDLH-8 cells (E:T=10:1) in the presence of escalating concentrations of CD19-TCB in media supplemented with the different JAK inhibitors (100 nM) for 24 hrs.
FIG. 73. In vitro killing assay set-up.
(§5) PBMCs were co-cultured together with CellTrace™ Violet (CTV) labelled SUDLH-8 tumor cells and escalating concentrations of CD19-TCB in the presence of the different kinase inhibitors, including also the Src inhibitor dasatinib (FIG. 64). At assay endpoint (24 hrs), the killing of CTV labelled SUDLH-8 cells was measured by flow cytometry by exclusion of the dead SUDLH-8 cells with a Live/Dead stain. […] Lastly, the levels of cytokines were measured in the supernatants of the assay to evaluate the effect of mTOR, JAK and Src inhibitors on CD19-TCB-induced cytokine release.
At assay endpoint (24 hrs), the killing of CTV labelled SUDLH-8 cells was measured by flow cytometry by exclusion of the dead SUDLH-8 cells with a Live/Dead stain. […]

CD20+ B cells = test: CD19-TCB-induced B cell depletion in humanized NSG mice; type: in vivo; conditions: for CD19-TCB-induced B cell depletion in blood: co-treatment with 0.5 mg/kg CD19-TCB
Text: (§6) FIG. 81. In vivo experiment timelines and dosing schedule.
(§7) To best reproduce the pharmacodynamic profile of ruxolitinib, dasatinib and sirolimus in the clinic and to verify whether the resulting exposure would be sufficient to prevent CD19-TCB-induced cytokine release, dasatinib and ruxolitinib were given per os twice per day, and sirolimus was given per os twice per day on day 1 and then once per day.
At 48 hrs and 72 hrs, blood was collected by tail-vein bleeding and the CD20+ B cell count was measured by flow cytometry (FIGS. 82A and B) to assess the effect of the different treatments on CD19-TCB-induced B cell depletion. […] Its half-life being around 6-7 hrs and dasatinib being given only twice per day, a lack of exposure could likely explain that CD19-TCB was partially active, resulting in B cell depletion. At experiment termination (72 hrs), spleens were collected and the B cell count was measured by flow-cytometry (FIG. 83). […] However, their inhibitory effect was stronger than methylprednisolone (FIG. 83).

[6] = tested on: MKN45 NucLight Red (NLR) target cells; test: killing assay with PBMCs, MKN45 NLR target cells and CEA-TCB (Incucyte); type: cell-based; conditions: antibodies 5 μg/ml; kinase inhibitors 50 nM; in comparison to TCB alone
[7] = tested on: CD19-TCB-induced cytokine release; test: CD19-TCB-induced cytokine release in SUDLH-8 assay (Luminex); type: cell-based; conditions: 24 hrs; 100 nM inhibitor
Procedure: as §5
(§8) At assay endpoint (24 hrs), the killing of CTV labelled SUDLH-8 cells was measured by flow cytometry by exclusion of the dead SUDLH-8 cells with a Live/Dead stain. […] Lastly, the levels of cytokines were measured in the supernatants of the assay to assess the effect of the JAK inhibitors on CD19-TCB-induced cytokine release.
as §8, with “stain to evaluate the effect of the different mitigation approaches on CD19-TCB-dependent killing.” for “stain.”, “address” for “assess”

[8] = tested on: lymphoma patient derived xenograft (PDX); test: CD19-TCB anti-tumor activity in lymphoma PDX bearing humanized NSG mice; type: in vivo; conditions: sirolimus 5 mg/kg, p.o.; for anti-tumor activity in combination with CD19-TCB (0.5 mg/kg): ruxolitinib 30 mg/kg, dasatinib 20 mg/kg, dexamethasone, transient use
Procedure: as §3, §4

[9] = tested on: CD19-TCB-induced cytokine release; test: CD19-TCB-induced cytokine release in humanized NSG mice (serum, Luminex); type: in vivo; conditions: serum 6 hrs post treatment with CD19-TCB
Text: as §6, §7

[10] = 48 hrs, p.o.: 6×30 mg/kg ruxolitinib, 4×5 mg/kg sirolimus, dexamethasone, methylprednisolone

Row | Compound | TCB activity (CD19+ B cells) | CTV labelled NALM-6 tumor cell killing (NALM-6 tumors cells) | expression of CD25 and CD69 on CD4+ and CD8+ T cells (T cell activation) (CD4+ and CD8+ T cells [1]) | CD25 and CD69 expression on CD4+ and CD8+ T cells (T cell activation) (CD4+ and CD8+ T cells [2]) | CEA-TCB-induced cytokine release [3] | further release of IFN-γ, TNF-α, IL-2 and IL-6 [4] | IL-2, IFN-γ, TNF-α and IL-6 release upon the first infusion [5] | CD19-TCB-dependent killing of CTV labelled SUDLH-8 cells (SUDLH-8 tumor cells) | CD19-TCB-induced CD20+ B cell depletion in the spleen (CD20+ B cells; 72 hrs (termination)) | CD19-TCB-induced B cell depletion in blood (CD20+ B cells; 72 hrs, dasatinib 6×50 mg/kg p.o.) | target cell killing (kinetics and maximal) by 10 nM CEA-TCB [6] | CD19-TCB-induced cytokine release [7] | anti-tumor activity in combination with CD19-TCB (0.5 mg/kg) [8] | effects on cytokine levels ([5]; compared with obinutuzumab pre-treatment) | CD19-TCB-induced IFN-γ and IL-6 release [9] | CD19-TCB-induced IL-2 and TNF-α [9] | CD19-TCB-induced B cell depletion in blood (CD20+ B cells; [10]) | tumor growth, given as a single agent ([8]; dexamethasone 1, 0.5, 0.25 mg/kg)
1 | Cc1nc(Nc2ncc(C(=O)Nc3c(C)cccc3Cl)s2)cc(N2CCN(CCO)CC2)n1 [dasatinib] | fully switched off | moderately reduced | fully blocked | fully prevented | fully prevented | prevented further release | strongly reducing | inhibition of killing | did not prevent | did no longer fully block | fully switched off; also recorded: fully prevented | complete inhibition | did not significantly suppress | – | – | – | – | –
2 | C[C@@H]1C[C@H]2[C@@H]3CCC4=CC(=O)C=C[C@]4(C)[C@@]3(F)[C@@H](O)C[C@]2(C)[C@@]1(O)C(=O)CO [dexamethasone] | – | – | did not prevent | – | – | – | suppressed | did not prevent | – | – | – | – | comparable to CD19-TCB alone | stronger than the effect of obinutuzumab pre-treatment | comparable to the pre-treatement with obinutuzumab | comparable to the pre-treatement with Gazyva® | slightly prevented | reduction in tumor growth, yet not significant
3 | C[C@H]1C[C@@H]2[C@H]([C@@H](O)C[C@@]3(C)[C@H]2CC[C@]3(O)C(=O)CO)[C@@]2(C)C=CC(=O)C=C12 [methylprednisolone] | – | – | – | – | – | – | – | – | – | – | – | – | – | – | comparable to the pre-treatement with obinutuzumab | comparable to the pre-treatement with Gazyva® | slightly prevented | –
